Data published in publication PMC10349095.
Results are given in words; binding and its absence hold for the method and conditions named. Binding seen in cells or lysates may run through a third protein. Here binding means that the protein was enriched with, or labelled near, the bait; the list need not be complete.

Chains of the proteins cited; added tags and fusions are not shown.
UniProt Q9Z2K1: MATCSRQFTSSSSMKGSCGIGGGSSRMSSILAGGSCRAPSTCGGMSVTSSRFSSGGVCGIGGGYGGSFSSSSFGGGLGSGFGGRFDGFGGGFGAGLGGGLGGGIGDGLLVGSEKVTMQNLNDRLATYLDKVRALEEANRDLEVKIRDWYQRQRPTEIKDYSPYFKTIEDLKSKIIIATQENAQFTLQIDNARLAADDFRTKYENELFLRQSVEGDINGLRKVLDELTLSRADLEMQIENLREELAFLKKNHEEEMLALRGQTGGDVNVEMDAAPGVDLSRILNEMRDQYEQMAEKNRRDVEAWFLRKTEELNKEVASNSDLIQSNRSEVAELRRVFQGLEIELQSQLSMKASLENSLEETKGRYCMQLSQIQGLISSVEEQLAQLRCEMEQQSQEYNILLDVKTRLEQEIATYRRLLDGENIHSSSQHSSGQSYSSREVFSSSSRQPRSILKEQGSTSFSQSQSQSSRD

T1: zinc fingers and homeoboxes 1 (Zhx1) protein, endogenous in cardiac progenitors (mouse (endogenous in cardiac progenitors from mouse ESCs)) (UniProt P70121)
T1 sequence: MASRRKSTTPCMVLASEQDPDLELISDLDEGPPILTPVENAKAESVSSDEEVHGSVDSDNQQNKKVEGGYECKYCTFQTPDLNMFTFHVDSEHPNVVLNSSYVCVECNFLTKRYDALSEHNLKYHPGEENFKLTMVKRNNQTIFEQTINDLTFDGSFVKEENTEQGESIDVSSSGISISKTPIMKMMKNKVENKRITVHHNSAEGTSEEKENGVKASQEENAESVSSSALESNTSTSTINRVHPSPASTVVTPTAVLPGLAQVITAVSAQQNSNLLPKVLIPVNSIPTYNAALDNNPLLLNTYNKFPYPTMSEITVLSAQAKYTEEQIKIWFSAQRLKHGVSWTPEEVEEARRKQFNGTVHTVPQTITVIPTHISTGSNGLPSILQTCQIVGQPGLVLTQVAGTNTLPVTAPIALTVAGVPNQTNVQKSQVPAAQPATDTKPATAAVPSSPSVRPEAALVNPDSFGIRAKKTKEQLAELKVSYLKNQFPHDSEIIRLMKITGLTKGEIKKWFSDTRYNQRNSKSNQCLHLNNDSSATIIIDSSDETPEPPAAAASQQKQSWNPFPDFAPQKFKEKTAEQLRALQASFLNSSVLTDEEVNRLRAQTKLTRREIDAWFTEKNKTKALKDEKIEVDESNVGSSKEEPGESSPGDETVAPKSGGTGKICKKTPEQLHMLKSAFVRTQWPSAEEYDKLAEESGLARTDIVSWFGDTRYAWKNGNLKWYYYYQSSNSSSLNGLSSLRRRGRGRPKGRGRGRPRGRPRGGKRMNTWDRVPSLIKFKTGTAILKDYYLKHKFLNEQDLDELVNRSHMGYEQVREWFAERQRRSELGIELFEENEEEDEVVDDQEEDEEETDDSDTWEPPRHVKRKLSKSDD


Target: T1, zinc fingers and homeoboxes 1 (Zhx1) protein, endogenous in cardiac progenitors (mouse (endogenous in cardiac progenitors from mouse ESCs))
Test: affinity purification with mass spectrometry; IP from lysate of cardiac progenitors (IP lysis buffer, on ice 30 min) with magnetic beads carrying an anti-Zhx1 antibody; LC-MS

binding | Molecule
binds | Krt16 (from UniProt Q9Z2K1 1-469)
binds | Hsd17b4 (protein, UniProt P51660 1-735) MASPLRFDGRVVLVTGAGGGLGRAYALAFAERGALVIVNDLGGDFKGIGKGSSAADKVVAEIRRKGGKAVANYDSVEAGEKLVKTALDTFGRIDVVVNNAGILRDRSFSRISDEDWDIIHRVHLRGSFQVTRAAWDHMKKQNYGRILMTSSASGIYGNFGQANYSAAKLGILGLCNTLAIEGRKNNIHCNTIAPNAGSRMTETVLPEDLVEALKPEYVAPLVLWLCHESCEENGGLFEVGAGWIGKLRWERTLGAIVRKRNQPMTPEAVRDNWEKICDFSNASKPQTIQESTGGIVEVLHKVDSEGISPNRTSHAAPAATSGFVGAVGHKLPSFSSSYTELQSIMYALGVGASVKNPKDLKFVYEGSADFSCLPTFGVIVAQKSMMNGGLAEVPGLSFNFAKALHGEQYLELYKPLPRSGELKCEAVIADILDKGSGVVIVMDVYSYSGKELICYNQFSVFVVGSGGFGGKRTSEKLKAAVAVPNRPPDAVLRDATSLNQAALYRLSGDWNPLHIDPDFASVAGFEKPILHGLCTFGFSARHVLQQFADNDVSRFKAIKVRFAKPVYPGQTLQTEMWKEGNRIHFQTKVHETGDVVISNAYVDLVPASGVSTQTPSEGGELQSALVFGEIGRRLKSVGREVVKKANAVFEWHITKGGTVAAKWTIDLKSGSGEVYQGPAKGSADVTIIISDEDFMEVVFGKLDPQKAFFSGRLKARGNIMLSQKLQMILKDYAKL
binds | Ywhaq (protein, UniProt P68254 1-245) MEKTELIQKAKLAEQAERYDDMATCMKAVTEQGAELSNEERNLLSVAYKNVVGGRRSAWRVISSIEQKTDTSDKKLQLIKDYREKVESELRSICTTVLELLDKYLIANATNPESKVFYLKMKGDYFRYLAEVACGDDRKQTIENSQGAYQEAFDISKKEMQPTHPIRLGLALNFSVFYYEILNNPELACTLAKTAFDEAIAELDTLNEDSYKDSTLIMQLLRDNLTLWTSDSAGEECDAAEGAEN
